Results taken from the supplement of paper PMC8616043.
Structures can show the parent of a compound that is named as a salt. Some of the results follow. Repeats in this data set agree poorly, so a single value says little.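 The cells are human U-2 OS cells that stably carry a GFP sensor with a nuclear import signal and a classical export signal. They were transfected to make PR50, a 50-repeat proline–arginine dipeptide protein from the ALS/FTD gene C9ORF72. Each well's nuclear-minus-cytoplasm GFP signal was scaled from in-plate DMSO (low) to PR-only wells (high), then scored against the other test wells on the plate; compounds scoring well below zero were called hits that reverse the PR effect.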

System: U-2 OS NCT-C biosensor cells expressing PR50
Experiment: Z-score of normalised NCT-C biosensor translocation index in PR50-expressing cells; higher = more nuclear biosensor (more disrupted nuclear export)
Conditions: 3 µM; 24 h

| Compound | Z-score |
| --- | --- |
| CC(C(=O)O)c1cccc(Oc2ccccc2)c1 (configuration not stated) [Fenoprofen calcium salt dihydrate] | inactive: 0.569 |
| O=C1NC(=O)C(c2ccccc2[N+](=O)[O-])=C1Nc1ccc(O)c(Cl)c1 | inactive: 0.936 |
| COc1cc2c(c(OC)c1OC)-c1c(cc3c(c1OC)OCO3)C[C@H](C)[C@](C)(O)C2 [Gomisin A] | inactive: 0.408 |
| CC1(C)CCC(NC(=O)[C@@H](N)CCC(=O)O)CC1 | inactive: -0.589 |
| O=C(O)C1CCNCC1 [Isonipecotic acid] | inactive: -0.217 |
| CC1(C)CCC=[N+]1[O-] [5,5-Dimethyl-1- pyrroline-N-oxide] | inactive: 0.787 |
| C=CC(N)CCC(=O)O (racemic) [(±)-gamma-Vinyl GABA] | inactive: -0.484 |
| OC[C@@H](O)[C@@H](O)[C@H](O)[C@H](O)CO [Mannitol] | inactive: 0.037 |
| CCCCN1C[C@H](O)[C@@H](O)[C@H](O)[C@H]1CO [Miglustat (N-Butyldeoxynojirimycin·HCl)] | inactive: 0.0572 |
| C[C@@H](O)[C@H]1C(=O)N2C(C(=O)O)=C(SCCNC=N)C[C@H]12 [Imipenem] | inactive: -0.215 |
| C[C@@H](O)[C@H]1C(=O)N2C(C(=O)O)=C(SCCNC=N)C[C@H]12 [Imipenem monohydrate] | inactive: -0.729 |
| c1ccc2c(c1)CCCC2C1=NCCN1 (configuration not stated) [Tetrahydrozoline hydrochloride] | inactive: -0.396 |
| c1ccc2c(c1)CCCC2C1=NCCN1 (configuration not stated) [Tetrahydrozoline·HCl] | inactive: -0.342 |
| CN(C)C[C@H](O)Cn1c2ccc(Br)cc2c2cc(Br)ccc21 (racemic) [Wiskostatin] | inactive: 0.462 |
| CC(C)(C)C(=O)OCOC(=O)[C@@H]1N2C(=O)[C@@H](/N=C/N3CCCCCC3)[C@H]2SC1(C)C [Pivmecillinam] | inactive: -0.124 |
| N[C@@H](CC(=O)O)C(=O)O [L-Aspartic acid] | inactive: -0.00259 |
| C1N2CN3CN1CN(C2)C3 [Methenamine Hippurate] | inactive: -0.265 |
| CCCCCN(C)CCC(O)(P(=O)(O)O)P(=O)(O)O [Ibandronate sodium] | inactive: -1.7 |
| C=C(C)[C@@H]1CC[C@]2(C(=O)O)CC[C@]3(C)[C@H](CC[C@@H]4[C@@]5(C)CC[C@H](O)C(C)(C)[C@@H]5CC[C@]43C)[C@@H]12 [Betulinic acid] | inactive: -1.16 |
| O=C(/C=C/c1ccc(O)c(O)c1)c1ccc(O[C@@H]2O[C@H](CO)[C@@H](O)[C@H](O)[C@H]2O)c(O)c1O [Marein] | inactive: -0.177 |
| CC(C)=CCC[C@](C)(O)[C@H]1CC[C@]2(C)[C@@H]1CC[C@@H]1[C@@]3(C)CCC(=O)C(C)(C)[C@@H]3CC[C@]12C [Dipterocarpol] | inactive: -0.58 |
| CN=c1nc(-c2ccccc2)n(-c2ccccc2)s1 | inactive: -0.916 |
| C[N+](C)(C)CCOP(=O)(O)OP(=O)([O-])OC[C@H]1O[C@@H](n2ccc(N)nc2=O)[C@H](O)[C@@H]1O [Cytidine 5'- diphosphocholine sodium salt hydrate] | inactive: -0.359 |

| Compound | Z-score |
| --- | --- |
| CC(C)c1nc(N(C)S(C)(=O)=O)nc(-c2ccc(F)cc2)c1/C=C/[C@@H](O)C[C@@H](O)CC(=O)O [Rosuvastatin calcium] | inactive: -0.229 |
| CC(C)c1nc(N(C)S(C)(=O)=O)nc(-c2ccc(F)cc2)c1/C=C/[C@@H](O)C[C@@H](O)CC(=O)O [Rosuvastatin Calcium] | inactive: -0.396 |
| C=C(CC)C(=O)c1ccc(OCC(=O)O)c(Cl)c1Cl [Ethacrynic Acid] | inactive: 3.71 |
| CCOC(=O)COc1ccc2c(c1)C[C@@H](NC[C@H](O)c1cccc(Cl)c1)CC2 | inactive: -0.186 |
| CCN(CC)CCCC(C)Nc1ccnc2cc(Cl)ccc12 (configuration not stated) [Chloroquine diphosphate] | inactive: -0.815 |
| CCN(CC)CCCC(C)Nc1ccnc2cc(Cl)ccc12 (configuration not stated) [Chloroquine Diphosphate] | inactive: 1.17 |
| CCNC(=O)[C@H]1O[C@@H](n2cnc3c(N)nc(NCCc4ccc(CCC(=O)O)cc4)nc32)[C@H](O)[C@@H]1O | inactive: -0.181 |
| O=C(COc1cccc2c(=O)[nH]ccc12)c1ccccc1 | inactive: -0.845 |
| O=C(O)Cn1c(C(=O)Nc2nc(-c3ccccc3Cl)cs2)cc2ccccc21 | inactive: -0.0595 |
| C[C@](N)(Cc1ccc(O)cc1)C(=O)O [L-alpha-Methyl-p- tyrosine] | inactive: -0.121 |
| CC(C)NCC(O)COc1cccc2ccccc12 (racemic) [(±)-Propranolol hydrochloride] | inactive: 1.23 |
| CO[C@H]1/C=C/O[C@@]2(C)Oc3c(C)c(O)c4c(O)c(c(/C=N/N5CCN(C6CCCC6)CC5)c(O)c4c3C2=O)NC(=O)/C(C)=C\C=C\[C@H](C)[C@H](O)[C@@H](C)[C@@H](O)[C@@H](C)[C@H](OC(C)=O)[C@@H]1C [Rifapentine] | inactive: -0.38 |
| CN1CCC(=C2c3ccccc3C=Cc3ccccc32)CC1 [Cyproheptadine·HCl Sesquihydrate] | inactive: 0.808 |
| CN1CCC(=C2c3ccccc3C=Cc3ccccc32)CC1 [Cyproheptadine hydrochloride] | inactive: 0.0913 |
| NCC(O)C1CCCCCCC1 (configuration not stated) [2-Cyclooctyl-2- hydroxyethylamin e hydrochloride] | inactive: 0.419 |
| C[C@H]1O[C@H](O[C@H]2[C@H](O)[C@@H](O)[C@@H](O[C@H]3[C@H](O)[C@@H](O)C(O)O[C@@H]3CO)O[C@@H]2CO)[C@H](O)[C@@H](O)[C@@H]1N[C@H]1C=C(CO)[C@@H](O)[C@H](O)[C@H]1O (some centres not stated) [Acarbose] | inactive: 0.449 |
| CC(C)(C=O)Cc1cc(C(C)(C)C)c(O)c(C(C)(C)C)c1 | inactive: 3.25 |
| NNCCc1ccccc1 [Phenelzine Sulfate] | inactive: -0.0932 |
| NNCCc1ccccc1 [Phenelzine sulfate salt] | inactive: -0.0387 |
| NC1(C(=O)O)CCCCC1 [1-Amino-1- cyclohexane carboxylic acid hydrochloride] | inactive: 0.314 |
| CC(=O)Nc1ccc(C(=O)Nc2ccccc2N)cc1 | active: -3.21 |
| COc1cc2c(NC3CCN(C(C)C)CC3)nc(C3CCCCC3)nc2cc1OCCCN1CCCC1 | inactive: -1.43 |
| CC(=O)S[C@@H]1CC2=CC(=O)CC[C@]2(C)[C@H]2CC[C@@]3(C)[C@@H](CC[C@@]34CCC(=O)O4)[C@H]12 [Spironolactone] | inactive: -0.483 |

Taken from the listing for reference:

| Compound | Z-score |
| --- | --- |
| CN1CCC(=C2c3ccccc3C=Cc3ccccc32)CC1 [Cyproheptadine·HCl Sesquihydrate] | inactive: 0.808 |
| CN1CCC(=C2c3ccccc3C=Cc3ccccc32)CC1 [Cyproheptadine hydrochloride] | inactive: 0.0913 |
| NCC(O)C1CCCCCCC1 (configuration not stated) [2-Cyclooctyl-2- hydroxyethylamin e hydrochloride] | inactive: 0.419 |
| C[C@H]1O[C@H](O[C@H]2[C@H](O)[C@@H](O)[C@@H](O[C@H]3[C@H](O)[C@@H](O)C(O)O[C@@H]3CO)O[C@@H]2CO)[C@H](O)[C@@H](O)[C@@H]1N[C@H]1C=C(CO)[C@@H](O)[C@H](O)[C@H]1O (some centres not stated) [Acarbose] | inactive: 0.449 |
| CC(C)(C=O)Cc1cc(C(C)(C)C)c(O)c(C(C)(C)C)c1 | inactive: 3.25 |

Remaining list, next part

| Compound | Z-score |
| --- | --- |
| CC(C)(C)NCC(O)COc1cccc2[nH]c(=O)[nH]c12 (racemic) | inactive: 0.655 |
| CC(C)c1c(C(=O)Nc2ccccc2)c(-c2ccccc2)c(-c2ccc(F)cc2)n1CC[C@@H](O)C[C@@H](O)CC(=O)O [Atorvastatin Calcium] | inactive: -0.247 |
| CC(=O)OCC(=O)[C@@]1(O)CC[C@H]2[C@@H]3CCC4=CC(=O)CC[C@]4(C)[C@H]3[C@@H](O)C[C@@]21C [Hydrocortisone Acetate] | inactive: -0.05 |
| CN(C)CCC(c1ccc(Cl)cc1)c1ccccn1 (racemic) [(±)-  Chlorpheniramine maleate] | inactive: -0.544 |
| CCN[C@H]1CN(CCCOC)S(=O)(=O)c2sc(S(N)(=O)=O)cc21 [Brinzolamide] | inactive: -0.765 |
| NS(=O)(=O)c1cc(C2(O)NC(=O)c3ccccc32)ccc1Cl (configuration not stated) [Chlorthalidone] | inactive: 0.299 |
| C=CC(N)CCC(=O)O (configuration not stated) [Vigabatrin] | inactive: -0.965 |
| COc1ccc(-c2cc(=O)c3c(O)c(OC)c(OC)cc3o2)cc1O [Eupatorin] | inactive: 0.244 |
| CC(=O)OCC(=O)[C@@]1(O)CC[C@H]2[C@@H]3CCC4=CC(=O)CC[C@]4(C)[C@@]3(F)[C@@H](O)C[C@@]21C [Fludrocortisone Acetate] | inactive: 1.51 |
| O=C(O)CCCCCCCC(=O)O [Azelaic Acid] | inactive: -0.537 |
| O=C(O)CCCCCCCC(=O)O [Azelaic acid] | inactive: 0.477 |
| CC(C)c1cc(/C=C(\C#N)C(=O)NCCCc2ccccc2)cc(C(C)C)c1O | inactive: 0.0839 |
| CC(=Cc1ccc(C(=O)O)cc1)c1ccc2c(c1)C(C)(C)CCC2(C)C | inactive: -0.892 |
| O=C(C(c1ccccc1)c1ccccc1)N1CCN(CC(O)COc2cccc3ncccc23)CC1 (configuration not stated) [Dofequidar fumarate] | inactive: -0.159 |
| Cc1ccc2c(c1CCC(=O)O)CC[C@@H](NS(=O)(=O)c1ccc(Cl)cc1)C2 [Terutroban] | inactive: 0.895 |
| Cc1ccc(C(=O)c2ccc(CC(=O)O)n2C)cc1 [Tolmetin sodium dihydrate] | inactive: -0.35 |
| COC(=O)Nc1nc2cc(C(=O)c3cccs3)ccc2[nH]1 [Nocodazole] | inactive: 0.426 |
| O=C(/C=C/C#Cc1cccc(NS(=O)(=O)c2ccccc2)c1)NO [Oxamflatin] | inactive: 2.85 |
| Cc1cn[nH]c1 [4-Methylpyrazole hydrochloride] | inactive: -0.836 |
| Cc1cn[nH]c1 [Fomepizole] | inactive: 1.96 |
| OCCN1CCN(CC/C=C2/c3ccccc3Sc3ccc(C(F)(F)F)cc32)CC1 [cis(Z)-Flupenthixol dihydrochloride] | inactive: -0.013 |
